Measured values from PMC6219760.
Results are given in words; binding and its absence hold for the method and conditions named. Binding seen in cells or lysates may run through a third protein. Some entries that bind do so weakly or less than the wild type. Tags and fused reporters may be left off the sequences shown. Each block holds one binder with its values, some of them ahead of it.

Key:
[1] = target: T1, Buc-GFP, in vitro translated (wt Buc) (zebrafish) (UniProt H0WFA5); test: pull-down; in vitro translated proteins, RNase treatment prior to GFP pulldown, Western blot
T1 sequence: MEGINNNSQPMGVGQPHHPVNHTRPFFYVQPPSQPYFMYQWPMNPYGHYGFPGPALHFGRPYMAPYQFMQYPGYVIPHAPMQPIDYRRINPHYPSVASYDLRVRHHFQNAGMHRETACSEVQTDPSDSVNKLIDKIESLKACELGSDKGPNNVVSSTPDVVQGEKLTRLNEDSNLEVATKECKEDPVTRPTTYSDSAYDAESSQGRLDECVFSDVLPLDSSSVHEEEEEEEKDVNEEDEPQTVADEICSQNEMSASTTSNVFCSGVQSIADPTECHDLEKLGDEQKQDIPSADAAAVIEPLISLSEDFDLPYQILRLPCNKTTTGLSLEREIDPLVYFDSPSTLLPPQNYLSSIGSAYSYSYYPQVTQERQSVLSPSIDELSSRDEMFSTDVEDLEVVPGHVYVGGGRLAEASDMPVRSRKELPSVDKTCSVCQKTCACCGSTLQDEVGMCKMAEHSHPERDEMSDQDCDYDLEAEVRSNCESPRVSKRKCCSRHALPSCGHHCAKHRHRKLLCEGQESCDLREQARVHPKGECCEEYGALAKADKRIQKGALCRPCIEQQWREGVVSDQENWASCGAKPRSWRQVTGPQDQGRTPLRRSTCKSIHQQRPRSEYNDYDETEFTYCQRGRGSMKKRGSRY

[2] = target: T1, Buc-GFP, in vitro translated (wt Buc) (zebrafish); test: pull-down; in vitro translated proteins diluted in YSS buffer, GFP fusions held on GFP Trap beads, Western blot
[3] = target: T2, Buc^p106-GFP (1-601), in vitro translated (zebrafish) (UniProt H0WFA5); test: as above
T2 sequence: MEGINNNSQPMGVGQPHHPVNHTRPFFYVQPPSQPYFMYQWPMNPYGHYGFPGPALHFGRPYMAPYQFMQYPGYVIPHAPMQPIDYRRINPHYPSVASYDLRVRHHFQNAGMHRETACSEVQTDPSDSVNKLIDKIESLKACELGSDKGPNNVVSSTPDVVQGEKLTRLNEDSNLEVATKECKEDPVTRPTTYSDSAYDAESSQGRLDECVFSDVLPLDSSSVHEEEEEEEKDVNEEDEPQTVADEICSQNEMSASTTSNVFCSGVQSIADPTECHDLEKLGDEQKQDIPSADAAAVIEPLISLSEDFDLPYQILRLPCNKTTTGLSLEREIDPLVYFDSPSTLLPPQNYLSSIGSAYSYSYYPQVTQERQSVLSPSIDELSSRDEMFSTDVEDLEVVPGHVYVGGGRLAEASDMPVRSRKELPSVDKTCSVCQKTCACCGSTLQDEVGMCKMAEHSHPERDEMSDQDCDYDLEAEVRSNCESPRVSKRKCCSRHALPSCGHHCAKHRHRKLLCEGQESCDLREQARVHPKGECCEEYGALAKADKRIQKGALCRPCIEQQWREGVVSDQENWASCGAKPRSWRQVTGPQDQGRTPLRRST

[4] = target: T3, Buc^p43-GFP (1-361), in vitro translated (zebrafish) (UniProt H0WFA5); test: as above
T3 sequence: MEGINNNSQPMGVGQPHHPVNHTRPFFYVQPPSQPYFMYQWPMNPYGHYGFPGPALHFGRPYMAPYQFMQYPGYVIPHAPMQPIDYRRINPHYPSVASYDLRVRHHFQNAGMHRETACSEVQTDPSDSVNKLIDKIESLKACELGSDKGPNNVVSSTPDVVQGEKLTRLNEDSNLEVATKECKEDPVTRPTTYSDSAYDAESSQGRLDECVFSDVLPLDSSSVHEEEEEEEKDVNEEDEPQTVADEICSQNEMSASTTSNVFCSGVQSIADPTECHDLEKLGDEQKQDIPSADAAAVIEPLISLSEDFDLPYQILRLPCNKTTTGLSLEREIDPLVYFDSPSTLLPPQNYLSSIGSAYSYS

[5] = target: T4, Buc-GFP (Bucky ball fused to eGFP), from transgenic zebrafish (zebrafish) (UniProt H0WFA5); test: co-IP; GFP-Trap immunoprecipitation from extracts of 3 hpf Buc-GFP or H2A-GFP transgenic zebrafish embryos, blotted with GFP and Vasa antibodies
T4 sequence: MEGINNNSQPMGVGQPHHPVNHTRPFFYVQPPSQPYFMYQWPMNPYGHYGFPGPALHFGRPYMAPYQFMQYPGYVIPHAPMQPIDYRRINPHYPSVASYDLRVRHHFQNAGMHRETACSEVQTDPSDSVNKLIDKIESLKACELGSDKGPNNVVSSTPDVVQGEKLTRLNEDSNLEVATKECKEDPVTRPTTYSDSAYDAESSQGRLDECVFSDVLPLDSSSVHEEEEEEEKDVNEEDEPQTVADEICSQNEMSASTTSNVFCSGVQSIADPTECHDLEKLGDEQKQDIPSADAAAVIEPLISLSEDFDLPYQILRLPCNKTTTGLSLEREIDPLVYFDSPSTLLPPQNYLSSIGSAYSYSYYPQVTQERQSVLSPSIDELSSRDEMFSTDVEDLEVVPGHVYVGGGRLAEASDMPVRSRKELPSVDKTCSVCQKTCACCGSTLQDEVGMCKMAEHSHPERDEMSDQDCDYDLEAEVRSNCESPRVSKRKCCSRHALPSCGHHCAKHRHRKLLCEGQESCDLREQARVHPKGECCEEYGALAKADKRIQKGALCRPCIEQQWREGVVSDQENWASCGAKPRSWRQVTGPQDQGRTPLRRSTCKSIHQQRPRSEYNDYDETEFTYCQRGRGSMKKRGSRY

[6] = target: T5, Buc-VC (Buc fused to the C-terminal fragment of split Venus) (zebrafish) (UniProt H0WFA5); test: split reporter; BiFC with split Venus (VN, VC); mRNAs (200 pg each) injected into one-cell zebrafish embryos, fluorescence imaged at 3 hpf
T5 sequence: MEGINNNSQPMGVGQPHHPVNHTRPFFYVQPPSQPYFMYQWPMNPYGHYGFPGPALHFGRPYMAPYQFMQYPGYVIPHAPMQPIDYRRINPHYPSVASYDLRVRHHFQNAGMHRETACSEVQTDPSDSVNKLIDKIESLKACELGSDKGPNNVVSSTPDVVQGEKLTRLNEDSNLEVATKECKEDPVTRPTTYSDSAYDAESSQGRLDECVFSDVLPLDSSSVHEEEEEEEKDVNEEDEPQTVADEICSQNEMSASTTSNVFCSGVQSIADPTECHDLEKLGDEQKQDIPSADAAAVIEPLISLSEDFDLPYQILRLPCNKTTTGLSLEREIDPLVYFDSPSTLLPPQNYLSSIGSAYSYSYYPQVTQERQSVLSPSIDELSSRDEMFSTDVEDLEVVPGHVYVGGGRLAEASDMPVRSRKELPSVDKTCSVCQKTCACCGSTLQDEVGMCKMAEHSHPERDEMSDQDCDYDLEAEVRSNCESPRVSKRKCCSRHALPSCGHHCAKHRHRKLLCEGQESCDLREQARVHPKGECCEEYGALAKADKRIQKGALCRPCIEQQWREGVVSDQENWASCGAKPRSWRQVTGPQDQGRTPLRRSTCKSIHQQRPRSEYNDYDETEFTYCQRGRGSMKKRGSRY

binding [1]: binds
binding [2]: binds
binding [3]: binds
binding [4]: binds
B1: zebrafish Vasa, in vitro translated (protein, UniProt O42107 1-716)
chain: MDDWEEDQSPVVSCSSGFGLGSNGSDGGFKSFYTGGAGNDKSNSEGTEGSSWKMTGDSFRGRGGRGGSRGGRGGFSGFKSEIDENGSDGGWNGGESRGRGRGGFRGGFRSGSRDENDENRNDDGWKGGESRGRGRGGFGGSFRGGFRDGGNEDTGRRGFGRENNENGNDEGGEGRGRGRGGFRGGFRDGGGDESGKRGFGRGGFRGRNEEVFSKVTTADKLDQEGSENAGPKVVYVPPPPPEEESSIFSHYATGINFDKYDDILVDVSGSNPPKAIMTFEEAGLCDSLSKNVSKSGYVKPTPVQKHGIPIISAGRDLMACAQTGSGKTAAFLLPILQRFMTDGVAASKFSEIQEPEAIIVAPTRELINQIYLEARKFAYGTCVRPVVVYGGINTGYTIREVLKGCNVLCATPGRLHDLIGRGKIGLSKVRYLVLDEADRMLDMGFEPEMRKLVASPGMPSKEERQTLMFSATYPEDIQRMAADFLKVDYIFLAVGVVGGACSDVEQTVVQVDQYSKRDQLLELLRATGNERTMVFVETKRSADFIATFLCQEKISTTSIHGDREQREREKALSDFRLGHCPVLVATSVAARGLDIEQVQHVVNFDMPSSIDEYVHRIGRTGRCGNTGRAVSFFNPESDTPLARSLVKVLSGAQQVVPKWLEEVAFSAHGTTGFNPRGKVFASTDSRKGGSFKSDEPPPSQTSAPSAAAAADDEEWE

binding [5]: binds
B2: Vasa (Ddx4), endogenous in zebrafish embryos (protein, UniProt O42107 1-716)
chain: MDDWEEDQSPVVSCSSGFGLGSNGSDGGFKSFYTGGAGNDKSNSEGTEGSSWKMTGDSFRGRGGRGGSRGGRGGFSGFKSEIDENGSDGGWNGGESRGRGRGGFRGGFRSGSRDENDENRNDDGWKGGESRGRGRGGFGGSFRGGFRDGGNEDTGRRGFGRENNENGNDEGGEGRGRGRGGFRGGFRDGGGDESGKRGFGRGGFRGRNEEVFSKVTTADKLDQEGSENAGPKVVYVPPPPPEEESSIFSHYATGINFDKYDDILVDVSGSNPPKAIMTFEEAGLCDSLSKNVSKSGYVKPTPVQKHGIPIISAGRDLMACAQTGSGKTAAFLLPILQRFMTDGVAASKFSEIQEPEAIIVAPTRELINQIYLEARKFAYGTCVRPVVVYGGINTGYTIREVLKGCNVLCATPGRLHDLIGRGKIGLSKVRYLVLDEADRMLDMGFEPEMRKLVASPGMPSKEERQTLMFSATYPEDIQRMAADFLKVDYIFLAVGVVGGACSDVEQTVVQVDQYSKRDQLLELLRATGNERTMVFVETKRSADFIATFLCQEKISTTSIHGDREQREREKALSDFRLGHCPVLVATSVAARGLDIEQVQHVVNFDMPSSIDEYVHRIGRTGRCGNTGRAVSFFNPESDTPLARSLVKVLSGAQQVVPKWLEEVAFSAHGTTGFNPRGKVFASTDSRKGGSFKSDEPPPSQTSAPSAAAAADDEEWE

binding [6]: binds
B3: Vasa-VN (Vasa fused to the N-terminal fragment of split Venus) (protein, UniProt O42107 1-716)
chain: MDDWEEDQSPVVSCSSGFGLGSNGSDGGFKSFYTGGAGNDKSNSEGTEGSSWKMTGDSFRGRGGRGGSRGGRGGFSGFKSEIDENGSDGGWNGGESRGRGRGGFRGGFRSGSRDENDENRNDDGWKGGESRGRGRGGFGGSFRGGFRDGGNEDTGRRGFGRENNENGNDEGGEGRGRGRGGFRGGFRDGGGDESGKRGFGRGGFRGRNEEVFSKVTTADKLDQEGSENAGPKVVYVPPPPPEEESSIFSHYATGINFDKYDDILVDVSGSNPPKAIMTFEEAGLCDSLSKNVSKSGYVKPTPVQKHGIPIISAGRDLMACAQTGSGKTAAFLLPILQRFMTDGVAASKFSEIQEPEAIIVAPTRELINQIYLEARKFAYGTCVRPVVVYGGINTGYTIREVLKGCNVLCATPGRLHDLIGRGKIGLSKVRYLVLDEADRMLDMGFEPEMRKLVASPGMPSKEERQTLMFSATYPEDIQRMAADFLKVDYIFLAVGVVGGACSDVEQTVVQVDQYSKRDQLLELLRATGNERTMVFVETKRSADFIATFLCQEKISTTSIHGDREQREREKALSDFRLGHCPVLVATSVAARGLDIEQVQHVVNFDMPSSIDEYVHRIGRTGRCGNTGRAVSFFNPESDTPLARSLVKVLSGAQQVVPKWLEEVAFSAHGTTGFNPRGKVFASTDSRKGGSFKSDEPPPSQTSAPSAAAAADDEEWE
